The values that follow come from ChEMBL document CHEMBL1148661, “SAR studies: designing potent and selective LXR agonists” (Bioorg Med Chem Lett, 2006).

For orientation: IC50 means the concentration at which inhibition is half-maximal. Read a high IC50 as weaker potency in that assay.

In the test the target is T1, Peroxisome proliferator-activated receptor delta (Homo sapiens, UniProt Q03181).
T1 sequence (Q03181 whole entry): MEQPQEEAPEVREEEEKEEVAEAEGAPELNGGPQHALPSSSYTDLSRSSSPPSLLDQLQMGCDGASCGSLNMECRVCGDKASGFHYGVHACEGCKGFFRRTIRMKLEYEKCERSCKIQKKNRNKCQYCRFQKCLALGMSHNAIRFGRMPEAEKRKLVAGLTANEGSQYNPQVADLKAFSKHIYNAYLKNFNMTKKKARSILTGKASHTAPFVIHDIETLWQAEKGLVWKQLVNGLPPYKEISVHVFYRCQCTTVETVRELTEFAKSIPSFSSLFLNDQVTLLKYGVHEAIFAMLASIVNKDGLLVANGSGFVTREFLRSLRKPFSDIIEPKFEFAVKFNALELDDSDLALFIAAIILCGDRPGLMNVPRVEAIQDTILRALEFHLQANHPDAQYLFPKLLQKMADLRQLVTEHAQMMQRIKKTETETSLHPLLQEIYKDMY

Turning to `CCCc1c(OCCCn2nnc3cc(CC(=O)O)ccc32)ccc2c(C(F)(F)F)noc12`, it took 79 nM to reach half-maximal inhibition (IC50).
With `CCCc1c(OCCCn2ncc3cc(CC(=O)O)ccc32)ccc2c(C(F)(F)F)noc12` the figure was 24 nM.
